{"source": "PubChem BioAssay AID504791, Drosophila RNAi Screening Center, 2011", "purpose": "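Genes whose knock-down strengthens or weakens small-RNA reporter silencing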 (primary screen)", "system": "Drosophila S2-derived reporter cells", "knock-down reagent": "long dsRNA against Drosophila genes, about 150-250 ng dsRNA per well (siRNA assay); about 80-120 ng (miRNA assay)", "timing": "about 5 days (siRNA assay); about 4 days (miRNA assay)", "conditions": "copper sulfate induction of reporters: 25 µM (siRNA assay); 200 mM stated (miRNA assay), 1-2 days before reading", "read-out": "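Per-well ratio of Renilla over firefly light, expressed relative to that plate's average ratio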", "units": "stable assay Renilla, run 1 in luminescence; stable assay firefly, run 1 in luminescence", "rule for the call": "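First-pass picks had plate-scaled ratios over 1.5 for the siRNA assay, over 1.6 for the miRNA assay, or under 0.6; two distinct dsRNAs had to score alike on retest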", "note": "The screen tested about 23,000 reagents; below is an unselected part of those that have a named target and a result. In the full data, 199 (0.86%) were called active. 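Plate-scaled ratios behind the calls are not deposited; printed light signals are raw; many rows marked increased or decreased are still called inactive.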 A plus sign joins genes that one reagent is predicted to hit. Not stated in the record: the direction of the score."}
{"gene knocked down": "CG18731", "dsRNA": "DRSC15377", "stable assay Renilla, run 1": 9730, "stable assay firefly, run 1": 3.94e5, "Call": "inactive"}
{"gene knocked down": "X11Lbeta", "dsRNA": "DRSC18156", "stable assay Renilla, run 1": 5198, "stable assay firefly, run 1": 4.12e5, "Call": "inactive"}
{"gene knocked down": "X11Lbeta", "dsRNA": "DRSC18158", "stable assay Renilla, run 1": 5087, "stable assay firefly, run 1": 4.12e5, "Call": "inactive"}
{"gene knocked down": "CG8112", "dsRNA": "DRSC16377", "stable assay Renilla, run 1": 6884, "stable assay firefly, run 1": 4.18e5, "Call": "inactive"}
{"gene knocked down": "Tif-IA", "dsRNA": "DRSC03717", "stable assay Renilla, run 1": 84026, "stable assay firefly, run 1": 3.54e5, "Call": "inactive"}
{"gene knocked down": "Tif-IA", "dsRNA": "DRSC03726", "stable assay Renilla, run 1": 7447, "stable assay firefly, run 1": 5.34e5, "Call": "inactive"}
{"gene knocked down": "par-1", "dsRNA": "DRSC05792", "stable assay Renilla, run 1": 5215, "stable assay firefly, run 1": 3.38e5, "Call": "inactive"}
{"gene knocked down": "par-1", "dsRNA": "DRSC06098", "stable assay Renilla, run 1": 7325, "stable assay firefly, run 1": 3.97e5, "Call": "inactive"}
{"gene knocked down": "par-1", "dsRNA": "DRSC06616", "stable siRNA reporter change": "reporter ratio raised past the hit cutoff", "stable assay Renilla, run 1": 31662, "stable assay firefly, run 1": 5.25e5, "Call": "inactive"}
{"gene knocked down": "par-1", "dsRNA": "DRSC07660", "stable assay Renilla, run 1": 6431, "stable assay firefly, run 1": 3.73e5, "Call": "inactive"}
{"gene knocked down": "par-1", "dsRNA": "DRSC07661", "stable assay Renilla, run 1": 7050, "stable assay firefly, run 1": 3.25e5, "Call": "inactive"}
{"gene knocked down": "GstO1", "dsRNA": "DRSC10688", "stable assay Renilla, run 1": 7650, "stable assay firefly, run 1": 5.49e5, "Call": "inactive"}
{"gene knocked down": "Ccdc58 + CG34116", "dsRNA": "DRSC10105", "stable assay Renilla, run 1": 8186, "stable assay firefly, run 1": 4.03e5, "Call": "inactive"}

Next part; the last 2 above are carried over.
{"gene knocked down": "GstO1", "dsRNA": "DRSC10688", "stable assay Renilla, run 1": 7650, "stable assay firefly, run 1": 5.49e5, "Call": "inactive"}
{"gene knocked down": "Ccdc58 + CG34116", "dsRNA": "DRSC10105", "stable assay Renilla, run 1": 8186, "stable assay firefly, run 1": 4.03e5, "Call": "inactive"}
{"gene knocked down": "Cerk", "dsRNA": "DRSC12285", "stable assay Renilla, run 1": 7703, "stable assay firefly, run 1": 4.83e5, "Call": "inactive"}
{"gene knocked down": "CG7739", "dsRNA": "DRSC10910", "stable assay Renilla, run 1": 6451, "stable assay firefly, run 1": 4.76e5, "Call": "inactive"}
{"gene knocked down": "pths", "dsRNA": "DRSC03171", "stable assay Renilla, run 1": 5636, "stable assay firefly, run 1": 3.06e5, "Call": "inactive"}
{"gene knocked down": "Ssadh", "dsRNA": "DRSC15621", "stable assay Renilla, run 1": 8467, "stable assay firefly, run 1": 5.37e5, "Call": "inactive"}
{"gene knocked down": "CG7362", "dsRNA": "DRSC16236", "stable assay Renilla, run 1": 4135, "stable assay firefly, run 1": 4.73e5, "Call": "inactive"}
{"gene knocked down": "Lsp2", "dsRNA": "DRSC09841", "stable assay Renilla, run 1": 7030, "stable assay firefly, run 1": 3.40e5, "Call": "inactive"}
{"gene knocked down": "Lsp2", "dsRNA": "DRSC11216", "stable assay Renilla, run 1": 5826, "stable assay firefly, run 1": 3.31e5, "Call": "inactive"}
{"gene knocked down": "Rga", "dsRNA": "DRSC12364", "stable assay Renilla, run 1": 9075, "stable assay firefly, run 1": 5.57e5, "Call": "inactive"}
{"gene knocked down": "Fatp2", "dsRNA": "DRSC03971", "stable assay Renilla, run 1": 3436, "stable assay firefly, run 1": 4.41e5, "Call": "inactive"}
{"gene knocked down": "Fatp2", "dsRNA": "DRSC04178", "stable assay Renilla, run 1": 5447, "stable assay firefly, run 1": 3.08e5, "Call": "inactive"}
{"gene knocked down": "Fatp2", "dsRNA": "DRSC04330", "stable assay Renilla, run 1": 6058, "stable assay firefly, run 1": 3.44e5, "Call": "inactive"}
{"gene knocked down": "CG33757", "dsRNA": "DRSC05159", "stable assay Renilla, run 1": 7087, "stable assay firefly, run 1": 4.40e5, "Call": "inactive"}
{"gene knocked down": "140up", "dsRNA": "DRSC12634", "stable assay Renilla, run 1": 8458, "stable assay firefly, run 1": 4.07e5, "Call": "inactive"}
{"gene knocked down": "CG12477", "dsRNA": "DRSC09886", "stable assay Renilla, run 1": 7411, "stable assay firefly, run 1": 4.51e5, "Call": "inactive"}
{"gene knocked down": "CG4660", "dsRNA": "DRSC18378", "stable assay Renilla, run 1": 6023, "stable assay firefly, run 1": 2.73e5, "Call": "inactive"}
